Patent publication US12702671B2, “Calcineurin inhibitors of the setron family for the treatment of hearing loss” (SENSORION, priority 2015, dated 2026)
Where a name gives a salt, the structure may show the parent alone. Some results were stated once for a whole list of compounds, not compound by compound.

Columns and labels:
calcineurin = assay: Calcineurin phosphatase activity in cerebellar granule neurons after 4 DIV (malachite green colorimetric assay, Test A); assay type: cell-based, Wistar rat; settings: CGNs, tested at 10, 100, 1000 nM, p<=0.05 vs K25 control
Experimental: According to Test A, phosphatase calcineurin activity is assessed in cerebellar granule neurons (CGNs) using a colorimetric assay kit based on quantification of the green complex formed between malachite green, molybdate and free phosphate released. CGNs are detached from plates, for example by scraping, rinsed in ice-cold tris buffer solution (TBS) and counted. About 10 million cells are lysed in 1 ml of the provided lysis buffer and centrifuged at 150,000×g at 4° C. for 45 min, and the supernatant may be stored at −70° C. until analysis. Prior to calcineurin activity assay, free phosphate and nucleotides are removed from cellular extract by gel filtration. […] The rapid green color formation from the reaction is measured, for example on a spectrophotometer. […] Absorbance values, read at 620 nm, may thus be transformed to percentage calcineurin activity relative to K25 control treatment (100%). […] Following centrifugation, cells were counted using trypan blue exclusion test in a Burker chamber. […] Phosphatase calcineurin activity was assessed in CGNs using a colorimetric assay kit based on quantification of the green complex formed between malachite green, molybdate and free phosphate released. CGNs were detached from plates by scraping, rinsed in ice-cold tris buffer solution (TBS) and counted. […]

[1] = system: acoustic trauma induced hearing loss; assay: Auditory brainstem response (ABR) thresholds after acoustic trauma; assay type: in vivo, Wistar rats; settings: day 14, i.p. daily for 14 days after acoustic trauma
Experimental: All experiments were performed using 7 week old male Wistar rats (CERJ, Le Genest, France) in accordance with the French Ministry of Agriculture regulations and European Community Council Directive no. 86/609/EEC, OJL 358. The rats were fed a standard diet ad libitum and maintained on a 12 h light-dark cycle. […]
For ABR recordings, three stainless steel needle electrodes were placed subdermally over the vertex, the right mastoid and right hind leg of each animal. Tone-pips (5 msec duration presented at a rate of 21/s) at 8, 16 and 24 kHz were delivered to the right ear using a calibrated MF-1 speaker in closed-field configuration (Tucker-Davis Technologies, Alachua, FL, USA) at attenuating intensity until no reproducible response could be recorded. […]
To quantify and compare the difference in treatment effects between groups while taking into account individual baseline and trauma variability, the hearing loss (ABR threshold shift & DPOAE amplitude loss) at D14 relative to baseline, as well as the functional recovery of hearing from 24 h to D14 (ABR threshold shift & DPOAE amplitude loss) were determined for all treatment groups.

Row | SMILES | concentrations at which calcineurin inhibition was significant (calcineurin) | higher ABR threshold shift at day 14 than placebo [1]
1 | CN1[C@@H]2CC[C@H]1C[C@@H](OC(=O)c1c[nH]c3ccccc13)C2 [tropisetron HCl] | 10 to 1000 nM | 17-40%
2 | Cc1nccn1CC1CCc2c(c3ccccc3n2C)C1=O (stereo not drawn) [ondansetron HCl] | 10 to 1000 nM | –
